Some results are limits rather than exact numbers.

The source of these data is patent EP3868394A1 (PAUL SCHERRER INSTITUT, priority 2020, dated 2021).

The series in a line: general procedure: Fmoc solid-phase peptide synthesis; rink amide MBHA LL resin; HATU, DIPEA. The conditions noted are these: whole synthesis.

As for “DOTA-(DGlu)5-DGlu-Ψ[Tz]-Ala-Tyr-Ψ[Tz]-Gly-Trp-Nle-Asp-Phe-NH2”, for the setting “scale 0.046 mmol”, the “final purity (method not given)” value is on record as greater than 99% and the isolated yield worked out at 11.5%.
On to “DOTA-DGlu-Ψ[Tz]-Ala-Tyr-Ψ[Tz]-Gly-Trp-Nle-Asp-Phe-NH2”, for which, for the setting “scale 0.0528 mmol”, the “final purity (method not given)” value was 97.9% and the isolated yield turned out to be 10.1%.
Turning to “DOTA-DGlu-Ψ[Tz]-Ala-Ψ[Tz]-Tyr-Ψ[Tz]-Gly-Trp-Nle-Asp-Phe-NH2”, under “scale 0.037 mmol”, the “final purity (method not given)” value is given as greater than 99% and the isolated yield was found to be 16.1%.
“DOTA-(DGlu)5-DGlu-Ala-Tyr-Ψ[Tz]-Gly-Trp-Nle-Asp-Phe-NH2”: for the setting “scale 0.032 mmol”, the “final purity (method not given)” value came out at 98.1% and the isolated yield is 19.6%.
Regarding “DOTA-DGlu-Ala-Tyr-Ψ[Tz]-Gly-Trp-Nle-Asp-Phe-NH2”, for the setting “scale 0.041 mmol”, the “final purity (method not given)” value was greater than 99% and the isolated yield was 13.9%.
